The text below walks through data of patent US20200140851A1 (Scripps Research, published 2020).

Sequences of proteins named here, by UniProt entry; tags and fusion partners are left off. A change or cut given only in a name is not applied to a line headed by its entry.
UniProt P08670: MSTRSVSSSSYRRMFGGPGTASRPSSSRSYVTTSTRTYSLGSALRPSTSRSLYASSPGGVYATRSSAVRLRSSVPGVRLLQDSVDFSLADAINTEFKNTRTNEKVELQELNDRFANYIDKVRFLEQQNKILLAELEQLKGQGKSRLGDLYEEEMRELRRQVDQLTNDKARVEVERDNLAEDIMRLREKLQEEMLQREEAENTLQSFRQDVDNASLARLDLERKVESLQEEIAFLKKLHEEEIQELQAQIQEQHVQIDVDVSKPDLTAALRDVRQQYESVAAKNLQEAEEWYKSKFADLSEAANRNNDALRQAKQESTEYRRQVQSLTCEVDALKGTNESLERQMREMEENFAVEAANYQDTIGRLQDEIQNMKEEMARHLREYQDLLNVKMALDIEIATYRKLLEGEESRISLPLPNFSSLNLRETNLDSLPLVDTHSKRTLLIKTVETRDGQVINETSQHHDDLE

These are yes or no findings as the source states them, for the method shown. In cells and extracts the contact can be indirect. Some entries that bind do so weakly or less than the wild type.

The test addresses human vimentin (human) (UniProt P08670). The test can be described thus: confocal immunofluorescence on human CD34+ cells; legend part A also gives the IP and nano-LC-MS/MS that identified human vimentin.

B1: B1 antibody (Fc fusion)
scFv: MAQVQLLESGGGLVQPGGSLTLACAASGFNFNNYNMNWVRQAPGRGLEWVAFISSAADTVHYADSVEGRFTISRDNAKNSLYLHMNSLRDEDTAVYYCARQLLYWGQGTLVTVSSGGGGGSQAVLTQPSSLSASPGASVSLTCTLRSGINVGAYRIYWYQQKPGSPPQFLLRYKSDSDKQQGSGVPSRFSGSRDASANAGILLISWLRSEDEADYYCAIWHSSAWVFGGGTQLTVLG
notes: also called B1 Ab; B1Ab; not shown: Fc tag of the purified ScFv-Fc fusion protein
Turning to B1, the binding result is given as “binds”.
